# Data reported in the supplement of paper PMC7024190.
# Where a name gives a salt, the structure may show the parent alone. This is one part of the list. Repeats in this data set agree poorly, so a single value says little.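 The cells were human embryonic kidney cells carrying a Renilla luciferase gene, driven by the HSV-TK promoter, on a plasmid put in briefly by transfection. This is the first-round screen of about ten thousand compounds, looking for ones that raise reporter output.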
# System: HEK 293FT
# Assay: log relative Renilla luciferase luminescence (reporter expression vs reference, reference not stated) (log (base not stated)); higher = higher recombinant reporter expression
# Details: 10 µM; time after transfection 48 h
# Description: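 HEK 293FT cells transiently transfected with pRL-TK (Renilla luciferase) were treated with compounds at 10 uM and luminescence was read about 42 h later. Values are log relative Renilla luminescence (log base and reference not stated). Single-pass screen; 2080 natural products library.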
row,Compound,log
1,"C=C(CC[C@@H](C)[C@H]1[C@@H](O)C[C@H]2[C@@H]3[C@H](O)C=C4C[C@@H](O)CC[C@]4(C)[C@H]3CC[C@]12C)C(C)C [Ergosta-5,24(28)-diene-3,7,16-triol]",-0.0563
2,C/C(=C\CC[C@@H](C)[C@H]1CC[C@@]2(C)C3CCC4C(C)(C)C(=O)CC[C@]4(C)C3=CC[C@]12C)C(=O)O (stereo not given in full) [Coccinic acid],-0.0197
3,COc1cc(O)cc(CCc2ccccc2)c1 [Dihydropinosylvin methyl ether],0.0759
4,C=C(C)C1CCC2C(=CCC3(C)C(C(C)CCC=C(C)C(=O)O)CCC23C)C1(C)CCC(=O)O (stereo not given) [Kadsuric acid],0.0352
5,Cc1c(O)c2c(c(C)c1CCO)C(=O)C(C)(C)C2 [Onitin],0.0762
6,CC(C)=CCC/C(C)=C/CC/C(C)=C/CC/C=C(\C)CC/C=C(\C)CCC=C(C)C [Squalene],-0.27
7,CC(=O)CC[C@@H]1[C@@]2(C)CO[C@]1(C)C[C@@H](O[C@@H]1O[C@H](CO)[C@@H](O)[C@H](O)[C@H]1O)C2 [Ascleposide E],-0.635
8,COc1ccc(C2OCC3C(c4cc(OC)c(OC)c(OC)c4)OCC23)cc1OC (stereo not given) [Magnolin],0.218
9,O=C1CC[C@H](CO)C1 [3-(hydroxymethyl)cyclopentanone],0.0251
10,COc1cc2c(c(OC)c1OC)-c1c(cc3c(c1O)OCO3)C[C@H](C)[C@@H](C)C2 [Gomisin M2],-0.334
11,CC1(C)O[C@H]2CC(=O)OC[C@@]23C1=C(O)C(=O)[C@]1(C)[C@@H]3CC[C@@]2(C)[C@H](c3ccoc3)OC(=O)[C@H]3O[C@]321 [Evodol],0.0179
12,CC(=O)Oc1cc(OC(C)=O)c2c(c1)O[C@H](c1ccc(OC(C)=O)c(OC(C)=O)c1)[C@@H](OC(C)=O)C2 [Catechin pentaacetate],0.0912
13,CC1(C)CC[C@]2(C)CC[C@]3(C)C(=C2C1)CC[C@@H]1[C@@]2(C)CCC(=O)C(C)(C)[C@@H]2CC[C@]13C [13(18)-Oleanen-3-one],0.0813
14,C/C(=C\CCC(C)C1CCC2(C)C3=CCC4C(C)(C)C(=O)CCC4(C)C3=CCC12C)C(=O)O (stereo not given) [Tyromycic acid],0.085
15,O[C@@H]1CC[C@@]2(O)CCO[C@H]2C1 [Cleroindicin E],-0.0122
16,O=c1ccn([C@@H]2O[C@H](CO)[C@@H](O)[C@H]2O)c(=O)[nH]1 [Uridine],0.015
17,O=c1ccc2nccc3c4ccccc4n1c23 [Canthin-6-one],-0.204
18,Oc1cc(O)cc(CCc2ccccc2)c1 [Dihydropinosylvin],0.852
19,CC1(C)[C@H](O)CC[C@@]2(C)[C@@H]3CC[C@](C)([C@@H](O)CO[C@@H]4O[C@H](CO)[C@@H](O)[C@H](O)[C@H]4O)C=C3CC[C@H]12 [Darutoside],-0.144
20,O=c1ccc2c(O[C@@H]3O[C@H](CO)[C@@H](O)[C@H](O)[C@H]3O)c3ccoc3c(O)c2o1 [8-Hydroxy-5-O-beta-D-glucopyranosylpsoralen],-0.104

# Some of these compounds in order of number of heavy atoms, ascending:
row,Compound,log
17,O=c1ccc2nccc3c4ccccc4n1c23 [Canthin-6-one],-0.204
6,CC(C)=CCC/C(C)=C/CC/C(C)=C/CC/C=C(\C)CC/C=C(\C)CCC=C(C)C [Squalene],-0.27
12,CC(=O)Oc1cc(OC(C)=O)c2c(c1)O[C@H](c1ccc(OC(C)=O)c(OC(C)=O)c1)[C@@H](OC(C)=O)C2 [Catechin pentaacetate],0.0912

# Additional records follow:

row,Compound,log
1,"CC1(C)CC[C@]2(C(=O)O)CC[C@]3(C)C(=CC[C@@H]4[C@@]5(C)C[C@@H](O)[C@@H](O)[C@](C)(CO)[C@@H]5CC[C@]43C)[C@@H]2C1 [2,3,24-Trihydroxyolean-12-en-28-oic acid]",-0.248
2,COc1cc2oc(=O)ccc2cc1[C@H]1O[C@H](OC(C)=O)[C@]2(C)O[C@H]12 [Acetyldihydromicromelin A],-0.0767
3,COc1cc(OC)c2ccc(=O)oc2c1C[C@H]1OC1(C)C [Sibiricin],-0.186
4,CC(C)(O)[C@H](O)COc1c2occc2cc2ccc(=O)oc12 [Heraclenol],0.226
5,"CC(=O)Oc1ccc(-c2oc3cc(OC(C)=O)cc(O)c3c(=O)c2OC(C)=O)cc1 [Kaempferol 3,4',7-triacetate]",-0.205
6,"COc1c(OC)c2nccc3c4ccccc4n(c1=O)c23 [4,5-Dimethoxycanthin-6-one]",0.134
7,C[C@@H]1O[C@@H](OC[C@H]2O[C@@H](Oc3c(-c4ccc(O)cc4)oc4cc(O)cc(O)c4c3=O)[C@H](O)[C@@H](O)[C@@H]2O)[C@H](O)[C@H](O)[C@H]1O [Nicotiflorin],0.0364
8,C=C1C(=O)C2=C[C@H]1CCC(=O)[C@@]1(C)[C@H](C[C@H]2O)C(C)(C)CC[C@H]1OC(C)=O [Kongensin A],-0.768
9,COc1cccc2c1[nH]c1c(C3CCCc4c5[nH]c6c(OC)cccc6c5c(OC)c[n+]43)ncc(OC)c12 (stereo not given) [Picrasidine S],-0.168
10,Oc1ccc2c(c1)OC[C@H]1c3cc4c(cc3O[C@@H]21)OCO4 [(-)-Maackiain],-0.106
11,COc1cc2c(cc1OC)-c1cc3cc(OC)c(OC)cc3c[n+]1CC2 [Pseudopalmatine],0.393
12,CC1(C)C(=O)C=C[C@@]2(C)C1=C(O)C(=O)[C@]1(C)[C@@H]2[C@@H](O)CC2=C(c3ccoc3)C[C@@H](O)[C@]21C [Walsuronoid B],-0.494
13,"OCC1CCC2(CCCCO2)O1 (stereo not given) [1,6-Dioxaspiro[4.5]decan-2-methanol]",0.146
14,"COc1ccccc1/C=C/C(=O)c1c(OC)cc(O)c(OC)c1O [2',4'-Dihydroxy-2,3',6'-trimethoxychalcone]",0.0237
15,O=c1c(O)c(-c2ccccc2)oc2cc(O)cc(O)c12 [Galangin],-0.0982
16,"CC(=O)OC[C@H](OC(C)=O)[C@]1(C)C=C2CC[C@@H]3C(C)(C)[C@H](O[C@@H]4O[C@H](CO)[C@@H](O)[C@H](O)[C@H]4O)CC[C@@]3(C)[C@@H]2CC1 [15,16-Di-O-acetyldarutoside]",0.363
17,Cc1c2c(cc3occ(C=O)c13)C(=O)CC[C@@H]2C [Viteralone],-0.119
18,COc1cc2c(c(OC)c1OC)-c1c(cc3c(c1OC)OCO3)[C@H](O)[C@H](C)[C@H](C)C2 [Isogomisin O],-0.344
19,COC(=O)C1=CO[C@@H](C)[C@H]2C[n+]3ccc4c([nH]c5ccccc54)c3C[C@H]12 [Serpentine hydrochloride],-0.334
20,"C=C(C)C1CCC(C)(O)C(O)C1 (stereo not given) [p-Menth-8-ene-1,2-diol]",-0.225
